This is an account of results in article PMC6915754, “Protein components of ribonucleoprotein granules from Drosophila germ cells oligomerize and show distinct spatial organization during germline development” (Scientific Reports, 2019).

These are yes or no findings as the source states them, for the method shown. Sequences can lack the tags named with a protein.

This experiment addresses T1, GFP-Aub (functional and methylated, from fly ovaries) (Drosophila) (UniProt O76922).
T1 sequence (chain, methylated (sDMAs), positions not printed): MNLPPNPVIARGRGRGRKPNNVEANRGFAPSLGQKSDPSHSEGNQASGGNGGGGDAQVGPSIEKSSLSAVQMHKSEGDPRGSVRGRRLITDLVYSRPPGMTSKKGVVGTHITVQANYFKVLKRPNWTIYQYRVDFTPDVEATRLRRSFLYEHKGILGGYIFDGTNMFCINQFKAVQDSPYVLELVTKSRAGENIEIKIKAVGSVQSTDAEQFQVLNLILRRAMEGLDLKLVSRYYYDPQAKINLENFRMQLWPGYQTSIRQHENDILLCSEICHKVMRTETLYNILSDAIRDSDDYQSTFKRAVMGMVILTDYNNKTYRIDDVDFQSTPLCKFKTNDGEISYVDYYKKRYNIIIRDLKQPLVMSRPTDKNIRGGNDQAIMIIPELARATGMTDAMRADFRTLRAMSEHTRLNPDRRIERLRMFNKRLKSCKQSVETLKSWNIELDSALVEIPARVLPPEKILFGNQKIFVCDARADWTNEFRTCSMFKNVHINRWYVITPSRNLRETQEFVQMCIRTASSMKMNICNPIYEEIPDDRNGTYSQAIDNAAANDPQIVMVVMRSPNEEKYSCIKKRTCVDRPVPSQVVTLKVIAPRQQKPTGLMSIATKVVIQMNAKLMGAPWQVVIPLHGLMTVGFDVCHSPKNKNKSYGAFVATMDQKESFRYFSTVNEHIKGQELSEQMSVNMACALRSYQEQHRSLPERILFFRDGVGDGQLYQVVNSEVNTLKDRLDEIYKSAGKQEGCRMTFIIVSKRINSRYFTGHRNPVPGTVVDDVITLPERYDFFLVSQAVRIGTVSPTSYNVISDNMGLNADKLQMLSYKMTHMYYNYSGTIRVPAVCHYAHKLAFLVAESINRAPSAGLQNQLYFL
The experiment is described as follows: pull-down; GFP-Aub from fly ovaries held on anti-GFP agarose beads; partially purified His-SUMO Tud domains added; 50 µl reactions, 4 °C, 30 min, binding buffer PBS + 0.05% IGEPAL CA-630; 4 washes; bound domains detected by anti-His-tag western blot; both purified. (In western blotting, separated proteins are transferred to a membrane and probed.)

B1: Tud domain 2 (amino acids 405-585 of Tudor) (domain or fragment, UniProt P25823 405-585)
chain: SLTVGLTYDVVISYVENGPYLFWVHLKSSDHDLSTMMGQIERTKLKALAQAPELGTACVARFSEDGHLYRAMVCAVYAQRYRVVYVDYGNSELLSASDLFQIPPELLEIKPFAFRFALAGTKEIEPIDDSMKRIFKKSAIYRNFELTVQAPESVGSMQTCHLNQNGTNMLELLRQLKNSRQ
Regarding B1, the binding entry is “no binding”.
